Record: PubChem BioAssay AID1508597 (Cure First, 2020)
Shown is an unselected part of the about 2,100 reagents, in one setting of the screen. 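Calls flag viability under 80% in either arm, not effects specific to rucaparib; the reference for percent is not stated.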 Some reagents were tested in more than one well and are listed for each. The record does not give: the 100% reference.

Test: 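Knock-downs altering ovarian cancer cell survival with or without PARP inhibitor rucaparib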 (primary screen)
Cells: human ovarian carcinoma lines grown from tumours: OCI-P5x (papillary serous) and OCI-C5x (clear cell)
Reagent: siRNA pool against human genes, 1.25 pmol siRNA per well
Timing: 72 h or 96 h, depending on the cell culture
Challenge: rucaparib 20 µM (about IC30) or vehicle, present until read-out
Rucaparib or vehicle: Rucaparib
Cell line: OCI-P5x (serous)
Read-out: 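ATP luminescence measured at 72 or 96 h according to the culture, then normalised and expressed as percent viability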
Reading the numbers: viability, normalised: higher = more viable cells remaining
Call rule: 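Active when normalised viability falls below 80 percent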
Calls: active = viability under 80%; inactive = viability 80% or more

| gene knocked down | technical replicate | viability, normalised (%) | call |
| --- | --- | --- | --- |
| MYO3B | 1 | 70.1 | active |
| MYO3B | 1 | 70.5 | active |
| MYO3B | 2 | 59.2 | active |
| MYO3B | 2 | 89 | inactive |
| MYO3B | 3 | 102 | inactive |
| MYO3B | 3 | 90.8 | inactive |
| PARP15 | 1 | 28.8 | active |
| PARP15 | 2 | 33.6 | active |
| PARP15 | 3 | 31.9 | active |
| DDX50 | 1 | 68.4 | active |
| DDX50 | 2 | 59.5 | active |
| DDX50 | 3 | 62.9 | active |
| GCH1 | 1 | 72 | active |
| GCH1 | 2 | 74.5 | active |
| GCH1 | 3 | 60.9 | active |
| SMN2 | 1 | 42.7 | active |
| SMN2 | 2 | 41.4 | active |
| SMN2 | 3 | 42.5 | active |
| RINT1 | 1 | 76 | active |
| RINT1 | 2 | 77.1 | active |
| RINT1 | 3 | 79.7 | active |
| DDX59 | 1 | 68.4 | active |
| DDX59 | 2 | 70.3 | active |
| DDX59 | 3 | 59.4 | active |
| SLC22A11 | 1 | 33.5 | active |
| SLC22A11 | 2 | 34 | active |
| SLC22A11 | 3 | 35.9 | active |

Reprinted from the entries so far for reference:
| gene knocked down | technical replicate | viability, normalised (%) | call |
| --- | --- | --- | --- |
| DDX50 | 1 | 68.4 | active |
| DDX50 | 2 | 59.5 | active |
| DDX50 | 3 | 62.9 | active |
| GCH1 | 1 | 72 | active |
| GCH1 | 2 | 74.5 | active |
| GCH1 | 3 | 60.9 | active |

The listing continues.
| gene knocked down | technical replicate | viability, normalised (%) | call |
| --- | --- | --- | --- |
| CSNK1A1L | 1 | 61.2 | active |
| CSNK1A1L | 2 | 55.9 | active |
| CSNK1A1L | 3 | 59 | active |
| TADA3 | 1 | 61.1 | active |
| TADA3 | 2 | 54.6 | active |
| TADA3 | 3 | 54.9 | active |
| CBX3 | 1 | 79.2 | active |
| CBX3 | 2 | 90.5 | inactive |
| CBX3 | 3 | 93 | inactive |
| MED4 | 1 | 60.5 | active |
| MED4 | 2 | 66.7 | active |
| MED4 | 3 | 55 | active |
| DDX3X | 1 | 76.7 | active |
| DDX3X | 1 | 53.7 | active |
| DDX3X | 2 | 68.5 | active |
| DDX3X | 2 | 49.1 | active |
| DDX3X | 3 | 55.7 | active |
| DDX3X | 3 | 68.3 | active |
| MAEL | 1 | 70.6 | active |
| MAEL | 2 | 63.6 | active |
| MAEL | 3 | 81 | inactive |
| DDX52 | 1 | 72.3 | active |
| DDX52 | 2 | 81.6 | inactive |
| DDX52 | 3 | 78.4 | active |
| APOA2 | 1 | 41.9 | active |
| APOA2 | 2 | 61.1 | active |
| APOA2 | 3 | 40.6 | active |
| ARX | 1 | 63.8 | active |
| ARX | 2 | 63.8 | active |
| ARX | 3 | 62.7 | active |
